According to the supplement of paper PMC10689618:
Structures can show the parent of a compound that is named as a salt. Some of the results follow. Single values are uncertain, as repeats are few or missing.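 Primary human fetal astrocytes engulfed labelled rat cortical synaptosomes, measured as a red/green ratio corrected for calcein live-cell signal and scaled to the plate median. Toxicity meant calcein falling over 30%; decreased phagocytosis meant below 70% of median above 5 µM.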

What was measured:
Human fetal astrocytes [1] = experiment: loss of total cells relative to no-compound high-control median (toxicity); higher = more toxic (fewer cells); conditions: 24 h
Human fetal astrocytes [2] = experiment: synaptosome phagocytosis (pHrodo/calcein intensity ratio) relative to plate median of data wells; higher = more phagocytosis; conditions: 24 h

| SMILES | loss of total cells (Human fetal astrocytes [1]; 1.39 µM) [%] | loss of total cells (Human fetal astrocytes [1]; 2.78 µM) [%] | loss of total cells (Human fetal astrocytes [1]; 5.56 µM) [%] | loss of total cells (Human fetal astrocytes [1]; 11.11 µM) [%] | loss of total cells (Human fetal astrocytes [1]; 22.22 µM) [%] | synaptosome phagocytosis (Human fetal astrocytes [2]; 1.39 µM) [%] | synaptosome phagocytosis (Human fetal astrocytes [2]; 2.78 µM) [%] | synaptosome phagocytosis (Human fetal astrocytes [2]; 5.56 µM) [%] | synaptosome phagocytosis (Human fetal astrocytes [2]; 11.11 µM) [%] | synaptosome phagocytosis (Human fetal astrocytes [2]; 22.22 µM) [%] |
| --- | --- | --- | --- | --- | --- | --- | --- | --- | --- | --- |
| CC(C(=O)O)c1cccc(Oc2ccccc2)c1 (stereo not given) | -14.9 | -10.1 | 12.9 | 3.9 | 13 | 102 | 96 | 100 | 93.1 | 99.8 |
| O=C(O)c1cn(-c2ccc(F)cc2)c2cc(N3CCNCC3)c(F)cc2c1=O | -37.9 | 25.4 | -5.6 | 50.8 | 3.4 | 107 | 153 | 116 | 167 | 106 |
| CCC(C)C(NC)C(=O)O (stereo not given) | -2.5 | -8.3 | -4.4 | 13.5 | 12.6 | 104 | 94.4 | 111 | 89.6 | 124 |
| CCN(CC)CCOC(=O)C(Cc1cccc2ccccc12)CC1CCCO1 (stereo not given) | -34.7 | -34.9 | 0.6 | 29.8 | 0.3 | 98.4 | 104 | 112 | 117 | 125 |
| NC(=O)NCCC[C@H](N)C(=O)O | -2.5 | -8.3 | 2.2 | 15.5 | 0 | 105 | 97 | 113 | 95.4 | 120 |
| OC1C(O)C(O)C(O)C(O)C1O (stereo not given) | 6.8 | -17.3 | -13.2 | -0.3 | 43.5 | 112 | 134 | 133 | 114 | 108 |
| CC(=O)O[C@H]1C[C@@H](OC(C)=O)C(C)(C)[C@@H]2C[C@@H](OC(C)=O)[C@]3(C)[C@H](CC[C@@]4(C)[C@H](c5ccoc5)OC(=O)[C@H]5O[C@@]534)[C@@]12C | -5.4 | -3.3 | 13.7 | 1.3 | 13.7 | 4.3 | 11.9 | 17.7 | 11.9 | 24.4 |
| Cc1c(C)c2c(c(C)c1O)CCC(C)(C(=O)O)O2 (stereo not given) | 17.7 | 25.6 | 16.7 | 10.5 | 16.7 | 144 | 130 | 91.2 | 97 | 134 |
| CC(=O)Oc1ccc(C(c2ccc(OC(C)=O)cc2)c2ccccn2)cc1 | -16.6 | -2.7 | 0.3 | -31.3 | 18.7 | 115 | 112 | 103 | 144 | 105 |
| FC(F)(F)COCC(F)(F)F | -7.6 | 6.6 | 34.4 | 44.5 | -4.1 | 79.9 | 103 | 120 | 120 | 96.7 |
| N=C(N)NC(=N)NCCc1ccccc1 | -33.2 | -19.8 | 2.7 | -14.8 | 11.3 | 107 | 104 | 87 | 63 | 97.1 |
| COc1cc(C(=O)NCc2ccc(OCCN(C)C)cc2)cc(OC)c1OC | 0 | 4.6 | 4.5 | -31.3 | 2.8 | 72 | 109 | 115 | 127 | 121 |
| C[C@]12CCC(=O)C=C1CC[C@@H]1[C@@H]2[C@@H](O)C[C@@]2(C)[C@H]1CC[C@]2(O)C(=O)COP(=O)(O)O | 12.2 | -24.1 | -15.3 | 11.2 | -7 | 129 | 113 | 121 | 125 | 114 |
| NC(=O)c1ccc[n+]([C@@H]2O[C@H](COP(=O)([O-])OP(=O)(O)OC[C@H]3O[C@@H](n4cnc5c(N)ncnc54)[C@H](O)[C@@H]3O)[C@@H](O)[C@H]2O)c1 | -20.7 | -16.2 | 11.1 | 6.3 | 10.8 | 107 | 107 | 123 | 131 | 113 |
| CCN1CCN(C(=O)N[C@@H](C(=O)N[C@@H]2C(=O)N3C(C(=O)O)=C(CSc4nnnn4C)CS[C@H]23)c2ccc(O)cc2)C(=O)C1=O | 8.3 | -13.1 | 6.9 | -10.2 | 15.3 | 118 | 91.1 | 106 | 124 | 107 |
| CC(=O)N[C@@H](C=O)[C@@H](O[C@H](C)C(=O)O)[C@H](O)[C@H](O)CO | 10.5 | -0.4 | 11.6 | 16.3 | 12.1 | 77.1 | 116 | 105 | 84.3 | 102 |
| Clc1ccc(COC(Cn2ccnc2)c2ccc(Cl)cc2Cl)cc1 (stereo not given) | -0.8 | -0.9 | 9.3 | 68.8 | 98.6 | 106 | 118 | 104 | 43.4 | 0 |
| O=C(O)c1cc(O)c2c(c1)[C@H]([C@H]1c3cc(C(=O)O)cc(O)c3C(=O)c3c(O[C@@H]4O[C@H](CO)[C@@H](O)[C@H](O)[C@H]4O)cccc31)c1cccc(O[C@@H]3O[C@H](CO)[C@@H](O)[C@H](O)[C@H]3O)c1C2=O | -11.6 | -16.8 | 11.7 | -7 | 9.6 | 93.9 | 126 | 119 | 102 | 108 |
| CC(=O)O[C@@H]1CC2C(C)(C)[C@H](O)CC[C@]2(C)C2CC[C@@]3(C)[C@H](c4ccoc4)OC(=O)C4OC43[C@@]21C (stereo partly drawn) [alpha-DIHYDROGEDUNOL] | 22.7 | -6.9 | 18.1 | -21.3 | -1.5 | 142 | 128 | 111 | 63.9 | 87.6 |
| CC(C)(CO)[C@@H](O)C(=O)NCCC(=O)NCCSSCCNC(=O)CCNC(=O)[C@H](O)C(C)(C)CO | -14.1 | 11.2 | -1.4 | -9.6 | 21.2 | 87.7 | 131 | 103 | 106 | 40.6 |

In another format: entries from further up.
SMILES,loss of total cells (Human fetal astrocytes [1]; 1.39 µM) [%],loss of total cells (Human fetal astrocytes [1]; 2.78 µM) [%],loss of total cells (Human fetal astrocytes [1]; 5.56 µM) [%],loss of total cells (Human fetal astrocytes [1]; 11.11 µM) [%],loss of total cells (Human fetal astrocytes [1]; 22.22 µM) [%],synaptosome phagocytosis (Human fetal astrocytes [2]; 1.39 µM) [%],synaptosome phagocytosis (Human fetal astrocytes [2]; 2.78 µM) [%],synaptosome phagocytosis (Human fetal astrocytes [2]; 5.56 µM) [%],synaptosome phagocytosis (Human fetal astrocytes [2]; 11.11 µM) [%],synaptosome phagocytosis (Human fetal astrocytes [2]; 22.22 µM) [%]
O=C(O)c1cn(-c2ccc(F)cc2)c2cc(N3CCNCC3)c(F)cc2c1=O,-37.9,25.4,-5.6,50.8,3.4,107,153,116,167,106
CCC(C)C(NC)C(=O)O (stereo not given),-2.5,-8.3,-4.4,13.5,12.6,104,94.4,111,89.6,124
CCN(CC)CCOC(=O)C(Cc1cccc2ccccc12)CC1CCCO1 (stereo not given),-34.7,-34.9,0.6,29.8,0.3,98.4,104,112,117,125
OC1C(O)C(O)C(O)C(O)C1O (stereo not given),6.8,-17.3,-13.2,-0.3,43.5,112,134,133,114,108
CC(=O)Oc1ccc(C(c2ccc(OC(C)=O)cc2)c2ccccn2)cc1,-16.6,-2.7,0.3,-31.3,18.7,115,112,103,144,105
COc1cc(C(=O)NCc2ccc(OCCN(C)C)cc2)cc(OC)c1OC,0,4.6,4.5,-31.3,2.8,72,109,115,127,121
CC(=O)N[C@@H](C=O)[C@@H](O[C@H](C)C(=O)O)[C@H](O)[C@H](O)CO,10.5,-0.4,11.6,16.3,12.1,77.1,116,105,84.3,102
Clc1ccc(COC(Cn2ccnc2)c2ccc(Cl)cc2Cl)cc1 (stereo not given),-0.8,-0.9,9.3,68.8,98.6,106,118,104,43.4,0
O=C(O)c1cc(O)c2c(c1)[C@H]([C@H]1c3cc(C(=O)O)cc(O)c3C(=O)c3c(O[C@@H]4O[C@H](CO)[C@@H](O)[C@H](O)[C@H]4O)cccc31)c1cccc(O[C@@H]3O[C@H](CO)[C@@H](O)[C@H](O)[C@H]3O)c1C2=O,-11.6,-16.8,11.7,-7,9.6,93.9,126,119,102,108

Following part.

| SMILES | loss of total cells (Human fetal astrocytes [1]; 1.39 µM) [%] | loss of total cells (Human fetal astrocytes [1]; 2.78 µM) [%] | loss of total cells (Human fetal astrocytes [1]; 5.56 µM) [%] | loss of total cells (Human fetal astrocytes [1]; 11.11 µM) [%] | loss of total cells (Human fetal astrocytes [1]; 22.22 µM) [%] | synaptosome phagocytosis (Human fetal astrocytes [2]; 1.39 µM) [%] | synaptosome phagocytosis (Human fetal astrocytes [2]; 2.78 µM) [%] | synaptosome phagocytosis (Human fetal astrocytes [2]; 5.56 µM) [%] | synaptosome phagocytosis (Human fetal astrocytes [2]; 11.11 µM) [%] | synaptosome phagocytosis (Human fetal astrocytes [2]; 22.22 µM) [%] |
| --- | --- | --- | --- | --- | --- | --- | --- | --- | --- | --- |
| CC(=O)NC1C(O)CC(O)(C(=O)O)OC1C(O)C(O)CO (stereo not given) | -21.4 | -2.7 | 29.8 | 46.5 | -9.3 | 88 | 103 | 114 | 162 | 101 |
| NC[C@H]1O[C@H](O[C@H]2[C@H](O)[C@@H](O[C@H]3O[C@H](CO)[C@@H](O)[C@H](N)[C@H]3O)[C@H](N)C[C@@H]2N)[C@H](N)[C@@H](O)[C@@H]1O | -16.3 | -22 | -13.2 | 0.9 | -32.5 | 96.7 | 122 | 90.4 | 121 | 72.3 |
| CC(=O)N[C@@H](Cc1c[nH]c2ccccc12)C(N)=O | 7.6 | 19.9 | 22.5 | 4.6 | 28.8 | 143 | 106 | 134 | 103 | 178 |
| C[N+]1(C)CCC(OC(=O)C(O)(c2ccccc2)C2CCCC2)C1 (stereo not given) | 6.2 | 12 | 31.3 | -0.6 | 38.1 | 123 | 105 | 152 | 101 | 159 |
| Nc1ccccc1S(N)(=O)=O | -1.1 | 9 | -1.4 | 10.5 | 23.5 | 119 | 127 | 97.1 | 114 | 97.2 |
| Nc1ccc(S(=O)(=O)NC(=O)c2ccccc2)cc1 | -13.4 | -28.1 | -27.2 | -4.3 | 21 | 106 | 130 | 115 | 92.2 | 122 |
| CC(=O)N(O)CCCCCNC(=O)CCC(=O)N(O)CCCCCNC(=O)CCC(=O)N(O)CCCCCN | -6.2 | -21.4 | -17.4 | -16.4 | 7.6 | 86.5 | 98.9 | 102 | 60.7 | 76.4 |
| CC(C)=CCc1c(O)cc2oc(C)cc(=O)c2c1O | -10.5 | 0 | -1.5 | 40 | 10.7 | 100 | 71.7 | 117 | 154 | 87.1 |
| CCOC(=O)Nc1nc2ccccc2[nH]1 | 19.4 | -36.5 | 3.7 | 49.5 | 6.5 | 140 | 115 | 117 | 113 | 78.8 |
| CC1c2cccc(O)c2C(O)=C2C(=O)C3(O)C(O)=C(C(N)=O)C(=O)C(N(C)C)C3C(O)C21 (stereo not given) [Doxycycline hydrochloride] | -0.3 | -21.4 | 4.9 | -2.6 | -22.2 | 126 | 120 | 90.4 | 109 | 90.2 |
| COc1cc(O)c(C(C)=O)c(OC)c1 | -14.1 | 12 | -19.1 | -0.6 | -15.9 | 87.6 | 100 | 105 | 96.9 | 96.9 |
| COc1ccc(-c2cc(=O)c3c(OC)c(OC)c(OC)c(OC)c3o2)cc1OC [Nobiletin] | -4.9 | 5.4 | 19 | 19.6 | 10.4 | 110 | 107 | 113 | 111 | 61.9 |
| CN1CCc2c(c3ccccc3n2Cc2ccccc2)C1 | 5.4 | 14.8 | 2.9 | -11.3 | -7.6 | 90.2 | 90.6 | 19.6 | 64.4 | 30.8 |
| Oc1c(I)cc(Cl)c2cccnc12 | 15.8 | -9.5 | 26.7 | 54.7 | 48.7 | 54.6 | 64.1 | 61.8 | 31 | 26.4 |
| CC(NCCC(c1ccccc1)c1ccccc1)c1ccccc1 (stereo not given) | 11.2 | 9 | 23.2 | 7.1 | 31.1 | 65.3 | 100 | 105 | 59 | 82.6 |
| CO[C@@]12[C@H](COC(N)=O)C3=C(C(=O)C(C)=C(N)C3=O)N1C[C@@H]1N[C@@H]12 | -29 | 8.8 | 0.3 | -7.8 | 6.8 | 103 | 94.4 | 104 | 107 | 85 |
| O=C(O[C@@H]1Cc2c(O)cc(O)cc2O[C@@H]1c1cc(O)c(O)c(O)c1)c1cc(O)c(O)c(O)c1 | -6.9 | 10.6 | -26 | 12.9 | 21.9 | 111 | 124 | 64.7 | 81.9 | 65.1 |
| CC1(C)S[C@@H]2[C@H](NC(=O)C(C(=O)O)c3ccccc3)C(=O)N2[C@H]1C(=O)O (stereo not given in full) | -19.1 | -11.3 | -3.9 | -18 | 0 | 115 | 114 | 91.1 | 98.6 | 109 |
| C[C@H]1O[C@@H](O[C@H]2[C@@H](O)C[C@H](O[C@H]3[C@@H](O)C[C@H](O[C@H]4CC[C@@]5(C)[C@H](CC[C@@H]6[C@@H]5CC[C@]5(C)[C@@H](C7=CC(=O)OC7)CC[C@]65O)C4)O[C@@H]3C)O[C@@H]2C)C[C@H](O)[C@@H]1O | 43 | 30.2 | 9.1 | 49.9 | 53.8 | 73.1 | 57.3 | 65.6 | 26 | 38.3 |
| CCN(CC)CCOC(=O)C(c1ccccc1)c1ccccc1 | -46 | -24.6 | -1.2 | 10.2 | 12.8 | 79.7 | 89.8 | 81 | 104 | 105 |
